In publication PMC8319341 one finds binding data, which are given here for 2 substances.

By UniProt entry, the sequences of proteins in these tests, tags left out. Where a name states a change or a piece, a line headed by the entry shows the natural chain unless it says otherwise. Chains listed by the source or under a name are the forms on record and can include a tag or linker. Residues count along the entry.
Sarcoplasmic endoplasmic reticular calcium ATPase 2 (SERCA2) (O55143-2, form named): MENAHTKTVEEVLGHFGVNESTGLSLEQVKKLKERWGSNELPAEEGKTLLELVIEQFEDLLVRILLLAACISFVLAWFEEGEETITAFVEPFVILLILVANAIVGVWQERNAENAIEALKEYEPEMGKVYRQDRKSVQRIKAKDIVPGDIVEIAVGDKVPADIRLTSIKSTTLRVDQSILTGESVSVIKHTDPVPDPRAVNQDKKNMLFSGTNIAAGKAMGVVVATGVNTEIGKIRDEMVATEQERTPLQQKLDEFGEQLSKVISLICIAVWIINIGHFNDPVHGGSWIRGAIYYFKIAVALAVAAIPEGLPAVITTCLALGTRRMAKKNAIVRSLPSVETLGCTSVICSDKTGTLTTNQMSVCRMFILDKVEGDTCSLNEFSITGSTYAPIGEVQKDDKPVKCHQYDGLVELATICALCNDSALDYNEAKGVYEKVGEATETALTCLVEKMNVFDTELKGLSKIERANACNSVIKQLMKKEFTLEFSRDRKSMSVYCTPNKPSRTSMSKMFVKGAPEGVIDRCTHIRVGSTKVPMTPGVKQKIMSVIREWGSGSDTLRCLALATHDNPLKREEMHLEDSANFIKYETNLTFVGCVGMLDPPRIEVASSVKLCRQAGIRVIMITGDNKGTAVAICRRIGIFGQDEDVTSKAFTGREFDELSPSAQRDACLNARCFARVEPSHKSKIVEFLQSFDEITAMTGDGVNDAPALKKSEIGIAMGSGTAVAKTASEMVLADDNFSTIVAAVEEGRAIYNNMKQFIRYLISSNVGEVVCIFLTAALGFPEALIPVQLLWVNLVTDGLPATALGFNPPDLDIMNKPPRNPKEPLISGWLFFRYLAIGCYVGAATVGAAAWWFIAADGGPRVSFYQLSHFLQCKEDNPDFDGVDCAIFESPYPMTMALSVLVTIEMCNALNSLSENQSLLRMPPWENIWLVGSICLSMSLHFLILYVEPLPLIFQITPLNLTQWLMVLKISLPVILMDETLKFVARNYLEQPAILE
UniProt P70414, residues 33-970: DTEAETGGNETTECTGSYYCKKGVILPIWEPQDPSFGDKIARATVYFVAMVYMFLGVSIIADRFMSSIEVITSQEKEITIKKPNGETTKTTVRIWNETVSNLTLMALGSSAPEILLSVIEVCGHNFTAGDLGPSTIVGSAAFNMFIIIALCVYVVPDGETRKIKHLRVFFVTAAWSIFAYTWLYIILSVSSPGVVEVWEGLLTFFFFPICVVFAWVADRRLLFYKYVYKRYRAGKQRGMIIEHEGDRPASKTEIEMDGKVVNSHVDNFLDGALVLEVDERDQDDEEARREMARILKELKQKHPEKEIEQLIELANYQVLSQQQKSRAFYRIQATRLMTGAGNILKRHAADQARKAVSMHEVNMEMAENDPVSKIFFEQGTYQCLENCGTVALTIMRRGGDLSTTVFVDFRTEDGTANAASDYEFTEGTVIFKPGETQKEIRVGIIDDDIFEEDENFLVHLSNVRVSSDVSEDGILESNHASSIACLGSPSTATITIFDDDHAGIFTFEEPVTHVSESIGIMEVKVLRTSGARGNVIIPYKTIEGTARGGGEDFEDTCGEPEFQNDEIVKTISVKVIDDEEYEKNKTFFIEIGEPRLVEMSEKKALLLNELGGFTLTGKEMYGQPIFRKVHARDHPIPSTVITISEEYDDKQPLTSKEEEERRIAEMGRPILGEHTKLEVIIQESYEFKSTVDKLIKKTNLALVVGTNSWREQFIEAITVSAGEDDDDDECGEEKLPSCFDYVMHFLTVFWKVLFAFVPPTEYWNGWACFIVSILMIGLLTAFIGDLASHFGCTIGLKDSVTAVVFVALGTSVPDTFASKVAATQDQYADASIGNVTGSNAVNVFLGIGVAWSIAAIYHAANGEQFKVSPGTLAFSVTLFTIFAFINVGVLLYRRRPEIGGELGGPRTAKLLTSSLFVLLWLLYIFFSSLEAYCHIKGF

Experiment [1] addresses T1, Voltage dependent anion channel 2 (VDAC2) (mouse (endogenous in heart)) (UniProt Q60930).
T1 sequence: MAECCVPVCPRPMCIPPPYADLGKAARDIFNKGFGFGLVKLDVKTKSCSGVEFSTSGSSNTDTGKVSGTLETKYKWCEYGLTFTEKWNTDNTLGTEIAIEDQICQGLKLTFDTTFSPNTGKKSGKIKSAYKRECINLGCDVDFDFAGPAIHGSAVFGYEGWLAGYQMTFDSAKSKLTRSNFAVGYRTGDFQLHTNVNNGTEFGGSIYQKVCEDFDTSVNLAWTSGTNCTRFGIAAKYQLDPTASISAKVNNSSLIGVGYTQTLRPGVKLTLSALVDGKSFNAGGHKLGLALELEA
The experiment can be described thus: co-IP; left ventricular lysate of 8-week-old WT and VDAC2-KO mice (4 mg/ml, precleared); 5 ug anti-VDAC2 antibody or control IgG on protein A magnetic beads, 1 h at room temperature, washed with PBST; western blot; KO heart as negative control. On the technique in general: Immunoblotting shows a protein as a band on a membrane.

The target of experiment [2] is T1, Voltage dependent anion channel 2 (VDAC2) (mouse (endogenous in heart)). Briefly: proximity ligation; Duolink In Situ PLA on paraffin-embedded mouse heart sections with antibodies to VDAC2 and to SERCA2 or NCX1.

These are yes or no findings as the source states them, for the method shown. In cells and extracts the contact can be indirect. Some binding calls cover weakened binding; strength is not graded here. Where a sequence is shown, tags or fusion partners need not be part of it.

Turning to “Sarcoplasmic endoplasmic reticular calcium ATPase 2 (SERCA2) (from UniProt O55143-2 1-998)”, the binding result in experiment [1] and in experiment [2] was “binds” in each case.

As to “Sodium–calcium exchanger 1 (NCX1) (from UniProt P70414 33-970)”, the binding result in experiment [1] and in experiment [2] was “binds” in each case.
